Experiment [1] deals with T1, recombinant His-tagged Neuropilin-1 b1b2 domain (UniProt O14786).
T1 sequence (looked up): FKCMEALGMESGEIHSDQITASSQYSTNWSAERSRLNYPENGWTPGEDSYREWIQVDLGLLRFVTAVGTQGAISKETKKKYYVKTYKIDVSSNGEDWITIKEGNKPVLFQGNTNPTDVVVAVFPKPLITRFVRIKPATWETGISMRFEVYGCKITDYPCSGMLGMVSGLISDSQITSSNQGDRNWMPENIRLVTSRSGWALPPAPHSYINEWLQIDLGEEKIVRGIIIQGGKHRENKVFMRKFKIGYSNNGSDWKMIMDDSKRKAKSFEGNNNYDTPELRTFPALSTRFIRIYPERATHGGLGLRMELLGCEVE
As to the kind of experiment: nanoparticle binding to recombinant protein.

In experiment [2] the target is T1, recombinant His-tagged Neuropilin-1 b1b2 domain. As to the kind of experiment: T7 phage binding to purified protein.
Experiment [3] has the same target. As to the kind of experiment: in vitro binding to NRP1 protein.
Experiment [4] shares this target. Description: summary of phage binding experiments.
For experiment [5] the target is unchanged. Description: summary in the discussion.

Results are given in words; binding and its absence hold for the method and conditions named. Some results given as binding are weak or reduced against the parent protein; the word gives no strength. Sequences can lack the tags named with a protein.

B1: PL3-functionalized silver nanoparticles (biotinylated PL3 peptide on NeutrAvidin-coated AgNPs) (peptide)
peptide: AGRGRLVR
modifications: biotinylated; bound to NeutrAvidin on dye-labeled PEGylated silver nanoparticles
In the case of B1, in experiment [1], the binding entry is listed as “binds”.
As for TSKQNSR [PL2 peptide displayed on T7 phage (TSKQNSR)], in experiment [2], the binding result was “binds”.
As for AGRGRLVR [PL3 peptide displayed on T7 phage (AGRGRLVR)], the binding result in experiment [2], in experiment [3], in experiment [4] and in experiment [5] was “binds” each time.
